Values from PubChem BioAssay AID504764 (Drosophila RNAi Screening Center, 2011)

- Purpose: 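Genome-wide screen for regulators of Notch-driven gene expression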 (primary screen)
- System: Drosophila Kc167 cells
- Knock-down reagent: long dsRNA against Drosophila genes
- Duration: about 5 days (4 days dsRNA, then 24 h after transfection)
- Treatment: transfection of constitutively active membrane-tethered Notch lacking the extracellular domain, read 24 h later
- Read-out: 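Light from a Notch-responsive E(spl)m3 luciferase reporter under active Notch, with control-promoter and no-Notch reporter wells to normalise; raw counts from paired wells a and b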
- Direction: induced reporter light, run 1, well a and induced reporter light, run 1, well b: higher = more light from the Notch target reporter with active Notch; control promoter light, run 1, well a and control promoter light, run 1, well b: higher = more light from the viral control promoter (cell number, transfection, viability); uninduced reporter light, run 1, well a: higher = more light from the Notch target reporter without active Notch
- Hit rule: 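Wells with low control signal or poorly matching duplicates excluded; duplicates averaged; per source plate, z beyond ±2 for induced/control log2 ratio or beyond ±1.8 for induced/uninduced marks a hit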
- Calls: active = modifier hit (raised or lowered Notch signal); inactive = not a hit
In all, the deposit lists about 22,000 reagents; below is a random part of those with a known target gene and a result. Of all reagents, 403 (1.9%) were called active. 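Unnormalised raw counts per well; ratio z-scores behind the hit calls and whether each hit raises or lowers signal are not deposited.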 A plus sign joins genes that one reagent is predicted to hit. Not given: the amount of reagent.

| gene | DRSC id | induced reporter light, run 1, well a | induced reporter light, run 1, well b | control promoter light, run 1, well a | control promoter light, run 1, well b | uninduced reporter light, run 1, well a | Call |
| --- | --- | --- | --- | --- | --- | --- | --- |
| CG14285 | DRSC14766 | 1.71e5 | 1.42e5 | 1.86e5 | 1.78e5 | 13225 | inactive |
| chrb (charybde) | DRSC11335 | 1.30e5 | 92735 | 66120 | 25100 | 8825 | inactive |
| CG12426 | DRSC14516 | 1.52e5 | 1.03e5 | 2.14e5 | 1.72e5 | 11080 | inactive |
| alphaTub84B (alpha-Tubulin at 84B) | DRSC12622 | 29015 | 23200 | 25400 | 23555 | 2910 | inactive |
| Gp210 (Glycoprotein 210 kDa) | DRSC04861 | 1.89e5 | 1.40e5 | 1.54e5 | 1.24e5 | 11020 | inactive |
| Gp210 (Glycoprotein 210 kDa) | DRSC04900 | 1.59e5 | 1.58e5 | 1.54e5 | 1.45e5 | 12665 | inactive |
| eIF2Bdelta (eukaryotic translation initiation factor 2B subunit delta) | DRSC04058 | 1.55e5 | 2.08e5 | 1.43e5 | 1.71e5 | 12905 | inactive |
| ND2 (retired record) | DRSC21274 | 79750 | 1.15e5 | 96965 | 1.27e5 | 10585 | inactive |
| Pomp | DRSC03201 | 81430 | 85825 | 57105 | 63975 | 5105 | inactive |
| Or67d (Odorant receptor 67d) | DRSC10158 | 2.65e5 | 1.74e5 | 2.31e5 | 2.46e5 | 12765 | inactive |
| CG12520 | DRSC09892 | 1.24e5 | 1.40e5 | 2.45e5 | 1.67e5 | 7940 | inactive |
| CG15628 | DRSC00256 | 2805 | 2600 | 3780 | 3340 | 2525 | inactive |
| CG15628 | DRSC00463 | 1.68e5 | 1.12e5 | 1.72e5 | 1.72e5 | 9732 | inactive |
| CG14339 | DRSC00369 | 1.18e5 | 1.05e5 | 1.22e5 | 63210 | 11192 | inactive |
| CCHa2-R (CCHamide-2 receptor) | DRSC04825 | 89295 | 96920 | 1.14e5 | 1.27e5 | 5210 | inactive |
| CCHa2-R (CCHamide-2 receptor) | DRSC04870 | 1.45e5 | 1.38e5 | 1.16e5 | 1.13e5 | 7330 | active |
| CCHa2-R (CCHamide-2 receptor) | DRSC04871 | 1.62e5 | 1.46e5 | 1.55e5 | 1.51e5 | 11180 | inactive |
| CG17944 | DRSC12572 | 87500 | 81295 | 61920 | 58335 | 5430 | inactive |
| rnh1 (ribonuclease H1) | DRSC07673 | 1.67e5 | 1.92e5 | 2.27e5 | 1.87e5 | 14782 | inactive |
| CG46491 | DRSC06565 | 79275 | 99835 | 1.84e5 | 2.76e5 | 10900 | active |
| CG46491 | DRSC06566 | 1.09e5 | 83765 | 1.07e5 | 1.22e5 | 7710 | inactive |
| CG31869 | DRSC02582 | 1.07e5 | 1.06e5 | 59380 | 70565 | 13800 | inactive |
| CG31869 | DRSC02674 | 93880 | 1.36e5 | 50840 | 69925 | 14865 | inactive |
| CG13369 | DRSC18481 | 1.12e5 | 89410 | 1.56e5 | 1.94e5 | 8320 | inactive |
| Uggt (UDP-glucose-glycoprotein glucosyltransferase) | DRSC11315 | 1.48e5 | 1.14e5 | 71755 | 80185 | 10085 | inactive |
| Hmgcr (HMG Coenzyme A reductase) | DRSC16704 | 1.35e5 | 1.17e5 | 1.29e5 | 1.28e5 | 9310 | inactive |
| CG12219 | DRSC17829 | 1.65e5 | 1.59e5 | 2.41e5 | 2.53e5 | 13130 | inactive |
| Stacl + CG8179 (retired record) | DRSC07091 | 87455 | 1.03e5 | 1.44e5 | 1.63e5 | 9970 | inactive |
| CG34005 | DRSC05700 | 41400 | 50145 | 26830 | 28080 | 8485 | inactive |
| CG12715 | DRSC19492 | 1.09e5 | 99640 | 2.17e5 | 2.51e5 | 10635 | inactive |
| CG17776 | DRSC18136 | 1.12e5 | 1.14e5 | 1.78e5 | 1.72e5 | 7538 | inactive |

Called active, among the entries above:
| gene | DRSC id | induced reporter light, run 1, well a | induced reporter light, run 1, well b | control promoter light, run 1, well a | control promoter light, run 1, well b | uninduced reporter light, run 1, well a | Call |
| --- | --- | --- | --- | --- | --- | --- | --- |
| CCHa2-R (CCHamide-2 receptor) | DRSC04870 | 1.45e5 | 1.38e5 | 1.16e5 | 1.13e5 | 7330 | active |
| CG46491 | DRSC06565 | 79275 | 99835 | 1.84e5 | 2.76e5 | 10900 | active |

Continued:
| gene | DRSC id | induced reporter light, run 1, well a | induced reporter light, run 1, well b | control promoter light, run 1, well a | control promoter light, run 1, well b | uninduced reporter light, run 1, well a | Call |
| --- | --- | --- | --- | --- | --- | --- | --- |
| ATPsynC (ATP synthase, subunit C) | DRSC15236 | 45985 | 56970 | 1.14e5 | 1.15e5 | 4310 | active |
| Tdc2 (Tyrosine decarboxylase 2) | DRSC04999 | 2.00e5 | 1.72e5 | 2.02e5 | 2.01e5 | 12960 | inactive |
| CG5418 | DRSC02857 | 1.47e5 | 1.47e5 | 1.41e5 | 1.42e5 | 11130 | inactive |
| H2.0 (Homeodomain protein 2.0) | DRSC03340 | 1.63e5 | 1.41e5 | 1.87e5 | 1.89e5 | 11415 | inactive |
| CG14598 | DRSC12541 | 84445 | 98600 | 1.04e5 | 82525 | 5970 | inactive |
| CG32461 | DRSC11594 | 2.86e5 | 2.45e5 | 3.06e5 | 2.67e5 | 20765 | inactive |
| Wdr92 (WD repeat domain 92) | DRSC10187 | 1.30e5 | 1.48e5 | 1.80e5 | 1.62e5 | 7925 | inactive |
| CG31093 | DRSC15689 | 1.73e5 | 1.84e5 | 2.02e5 | 1.80e5 | 15170 | inactive |
| PsGEF (Protostome-specific GEF) | DRSC18596 | 1.12e5 | 93555 | 1.35e5 | 1.66e5 | 8670 | inactive |
| RpL31 (Ribosomal protein L31) | DRSC06716 | 54330 | 71495 | 88380 | 74040 | 3870 | inactive |
| Set1 (SET domain containing 1) | DRSC20930 | 1.00e5 | 1.12e5 | 64405 | 89510 | 9395 | inactive |
| Set1 (SET domain containing 1) | DRSC20931 | 87780 | 92870 | 80180 | 83795 | 9670 | inactive |
| DIP-theta (Dpr-interacting protein theta) | DRSC00885 | 1.08e5 | 1.06e5 | 1.66e5 | 1.25e5 | 8470 | inactive |
| DIP-theta (Dpr-interacting protein theta) | DRSC02340 | 1.48e5 | 1.26e5 | 2.18e5 | 2.09e5 | 10070 | inactive |
| DIP-theta (Dpr-interacting protein theta) | DRSC02341 | 1.34e5 | 1.11e5 | 1.34e5 | 1.17e5 | 9610 | inactive |
| verm (vermiform) | DRSC11038 | 1.02e5 | 1.35e5 | 69785 | 81780 | 8615 | inactive |
| CG10359 | DRSC08156 | 1.32e5 | 1.32e5 | 1.02e5 | 31380 | 13682 | inactive |
| CG31760 | DRSC02590 | 1.32e5 | 1.48e5 | 1.23e5 | 1.45e5 | 11015 | inactive |
| thr (three rows) | DRSC07706 | 84475 | 89050 | 1.56e5 | 2.01e5 | 7840 | inactive |
